# Source: PubChem BioAssay AID1259254 (NCATS, 2017)
# Screen: 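Gene knock-downs that lead to re-replication, shown by excess G2 DNA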 (primary screen)
# System: human HCT116 colorectal cancer cells
# Reagent: single siRNA against human genes
# Duration: 3 days
# Measurement: 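Nuclei stained with Hoechst and imaged; cell-cycle phase assigned by DNA content; G2 share scaled per plate, non-targeting siRNA 0%, GMNN siRNA 100%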
# Scale: G2 robust z-score and G2 cells, % of GMNN control: higher = more G2 cells, more excess DNA replication; raw share of cells in G2: higher = larger share of cells with G2 DNA content
# Active means: 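An siRNA counts as active if its G2 robust z-score lies at least 5 MADs above the screen median; here such calls match roughly 38% of GMNN control or more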
# The whole screen tested about 59,000 reagents; this is a random part of them. Over the whole deposit, about 1,550 (2.6%) are marked active. 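G2 share is only a proxy for re-replication; each gene was hit by three separate siRNAs, and active genes were retested.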 Raw values are not corrected between plates. Not stated in the record: the amount of reagent.
gene,PubChem SID,G2 robust z-score,"G2 cells, % of GMNN control",raw share of cells in G2 (%),call
EDN1,SID160730741,-0.889,-3.29,4.04,inactive
EDN1,SID160758062,1.26,11.9,9.77,inactive
EDN1,SID160758073,-0.629,-1.46,3.14,inactive
KLRG2,SID160733122,-0.672,-1.76,3.48,inactive
KLRG2,SID160764923,-1.33,-6.41,1.79,inactive
KLRG2,SID160764924,-0.0659,2.5,4.35,inactive
COLEC10,SID160728789,-1.29,-6.07,2.6,inactive
COLEC10,SID160728790,2.46,20.3,12.5,inactive
COLEC10,SID160728791,2.33,19.4,10.4,inactive
ALKBH3,SID160732703,0.833,8.83,6.01,inactive
ALKBH3,SID160761604,-1.01,-4.14,2.08,inactive
ALKBH3,SID160761605,0.822,8.75,6.13,inactive
UBE2W,SID160743435,-0.618,-1.38,3.94,inactive
UBE2W,SID160743436,0.199,4.37,6.15,inactive
UBE2W,SID160743437,-0.521,-0.697,6.12,inactive
ACRBP,SID160752348,0.0741,3.49,5.27,inactive
ACRBP,SID160752349,-1.32,-6.32,1.58,inactive
ACRBP,SID160752350,1.94,16.6,7.45,inactive

Single entries from the entries so far.
UBE2W [SID160743436], G2 cells, % of GMNN control: 4.37
Value for ALKBH3 [SID160732703] in “G2 robust z-score”: 0.833
For “G2 robust z-score”, ALKBH3 [SID160761604] is entered as -1.01
KLRG2 [SID160733122], G2 cells, % of GMNN control = -1.76
COLEC10 [SID160728789], raw share of cells in G2 (%) = 2.6

The results go on:
gene,PubChem SID,G2 robust z-score,"G2 cells, % of GMNN control",raw share of cells in G2 (%),call
PCDHB15,SID160731544,1.32,12.3,8.84,inactive
PCDHB15,SID160744808,1.8,15.6,13.3,inactive
PCDHB15,SID160744809,-0.0546,2.58,5.41,inactive
YKT6,SID160728961,-0.736,-2.21,2.79,inactive
YKT6,SID160728962,2.71,22,15.8,inactive
YKT6,SID160728963,0.485,6.38,6.01,inactive
HLA-DPA1,SID160733057,2.21,18.5,10.8,inactive
HLA-DPA1,SID160774996,0.104,3.7,7.04,inactive
HLA-DPA1,SID160774997,-0.298,0.873,4.41,inactive
HCN2,SID160723622,0.0697,3.46,6.55,inactive
HCN2,SID160723633,1.66,14.6,9.73,inactive
HCN2,SID160731673,-0.876,-3.2,3.13,inactive
